According to patent US20140274978A1, “Phytosterol spirostane and spirostene derivatives having a wide variety of utilities in humans and other animals” (priority 2013, published 2014):
For at least one compound, name, drawing or mass did not settle the structure. Some entries share one result that the patent states for a list of compounds.

Key:
[1] = cited from earlier work
[2] = Competitive bodybuilders on anabolic steroids, added sapogenin (muscle mass); format: in vivo, humans; conditions: 20 mg/day in divided doses with anabolic steroids, over two months

Structure (SMILES) | anabolic activity [1] | increase in muscle mass [2]
C[C@]12C[C@H](O)[C@H](O)C[C@H]1C(=O)C=C1[C@@H]2CC[C@]2(C)C(=O)CC[C@@]12O [rubrosterone, 5β-androst-7-en-2β,3β,14α-triol-6,17-dione] | anabolic activity similar to other known ecdysteroids | 
C[C@@H]1CC[C@@]2(OC1)O[C@H]1C[C@H]3[C@@H]4C(=O)C=C5C[C@@H](O)CC[C@]5(C)[C@H]4CC[C@]3(C)[C@H]1[C@@H]2C [7-keto-diosgenin, 5,25R-spirosten-3β-ol-7-one] |  | 10-20 lbs
C[C@@H]1CC[C@@]2(OC1)O[C@H]1C[C@H]3[C@@H]4CC(=O)[C@@]5(O)C[C@@H](O)CC[C@]5(C)[C@H]4CC[C@]3(C)[C@H]1[C@@H]2C [25R-Spirostan-3B, 5α-diol-6-one, (25R)-spirostan-3β-5α-diol-6-one] |  | 10-20 lbs
